In paper doi:10.1101/2025.06.12.659263:
No constants are given. Whether binding was seen depends on the method and setting. Binding seen in cells or lysates may run through a third protein. Binding calls can cover weak binding; strength is not graded here.

Protein sequences, listed by entry. Tags and fused reporters are not part of them. Lines headed by an entry give the natural chain unless they say otherwise; changes in a name come on top.
UniProt P23201: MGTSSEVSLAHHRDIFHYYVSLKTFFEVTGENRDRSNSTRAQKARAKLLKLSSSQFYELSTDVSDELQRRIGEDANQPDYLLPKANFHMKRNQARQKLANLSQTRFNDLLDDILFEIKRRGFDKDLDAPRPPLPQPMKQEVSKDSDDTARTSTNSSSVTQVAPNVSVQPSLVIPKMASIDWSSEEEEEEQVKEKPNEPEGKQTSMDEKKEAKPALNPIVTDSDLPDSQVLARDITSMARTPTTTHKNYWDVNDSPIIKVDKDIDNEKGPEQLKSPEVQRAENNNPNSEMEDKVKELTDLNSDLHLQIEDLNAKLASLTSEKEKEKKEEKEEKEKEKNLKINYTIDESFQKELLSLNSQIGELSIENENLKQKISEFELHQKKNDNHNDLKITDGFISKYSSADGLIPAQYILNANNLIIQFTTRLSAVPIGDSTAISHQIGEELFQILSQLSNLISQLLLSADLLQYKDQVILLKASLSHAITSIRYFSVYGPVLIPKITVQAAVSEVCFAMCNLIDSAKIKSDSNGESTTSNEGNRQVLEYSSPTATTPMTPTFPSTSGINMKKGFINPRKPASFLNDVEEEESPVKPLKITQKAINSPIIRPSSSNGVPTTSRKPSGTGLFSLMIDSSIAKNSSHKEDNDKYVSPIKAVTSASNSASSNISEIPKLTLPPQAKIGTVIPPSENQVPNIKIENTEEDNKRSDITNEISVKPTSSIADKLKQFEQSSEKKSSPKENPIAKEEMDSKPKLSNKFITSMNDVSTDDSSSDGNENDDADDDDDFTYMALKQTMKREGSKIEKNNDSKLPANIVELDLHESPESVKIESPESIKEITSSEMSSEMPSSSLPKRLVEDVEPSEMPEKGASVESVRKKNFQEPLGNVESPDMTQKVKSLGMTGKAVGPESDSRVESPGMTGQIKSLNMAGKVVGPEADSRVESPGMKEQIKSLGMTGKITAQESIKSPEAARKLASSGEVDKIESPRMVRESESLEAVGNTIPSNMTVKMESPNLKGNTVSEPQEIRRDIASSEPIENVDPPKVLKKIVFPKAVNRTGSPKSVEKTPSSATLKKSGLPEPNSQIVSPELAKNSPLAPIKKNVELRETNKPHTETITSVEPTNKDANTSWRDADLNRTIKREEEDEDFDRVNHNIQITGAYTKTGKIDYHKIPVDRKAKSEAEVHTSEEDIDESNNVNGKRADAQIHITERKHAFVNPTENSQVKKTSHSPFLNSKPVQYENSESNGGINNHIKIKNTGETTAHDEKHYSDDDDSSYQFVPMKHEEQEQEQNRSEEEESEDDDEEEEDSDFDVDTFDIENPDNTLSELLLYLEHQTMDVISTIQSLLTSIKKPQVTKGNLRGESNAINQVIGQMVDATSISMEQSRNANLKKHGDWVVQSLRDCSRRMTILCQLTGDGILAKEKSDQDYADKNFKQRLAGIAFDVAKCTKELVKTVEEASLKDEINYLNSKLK
UniProt P06784: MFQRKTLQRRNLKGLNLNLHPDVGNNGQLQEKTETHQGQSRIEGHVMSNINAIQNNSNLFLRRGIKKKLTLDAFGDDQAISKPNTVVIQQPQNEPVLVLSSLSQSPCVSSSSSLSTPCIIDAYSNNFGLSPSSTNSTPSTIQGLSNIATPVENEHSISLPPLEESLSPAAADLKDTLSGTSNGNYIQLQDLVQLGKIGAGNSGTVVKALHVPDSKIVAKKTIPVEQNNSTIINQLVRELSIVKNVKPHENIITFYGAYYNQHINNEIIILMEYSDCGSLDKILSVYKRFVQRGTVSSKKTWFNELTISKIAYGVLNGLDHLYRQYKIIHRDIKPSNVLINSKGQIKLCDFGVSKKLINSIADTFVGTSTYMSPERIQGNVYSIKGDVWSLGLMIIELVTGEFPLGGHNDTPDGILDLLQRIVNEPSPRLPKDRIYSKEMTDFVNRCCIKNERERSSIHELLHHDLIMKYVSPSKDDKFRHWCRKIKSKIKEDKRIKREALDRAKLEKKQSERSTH

Target: Spa2CRU (S. cerevisiae) (UniProt P23201)
Test: split reporter

- binding: binds
Substance: Ste7_(105-162), the N-terminal extension of Ste7_(105-162)-Spa2CRU (from UniProt P06784) (domain or fragment)
